The list shows a part of the results. Most values lie at the level of the controls, where differences are scatter.

The chains behind the UniProt entries cited, without tags or fusion partners. Where a name states a change or a piece, a line headed by the entry shows the natural chain unless it says otherwise.
UniProt Q8TAP6: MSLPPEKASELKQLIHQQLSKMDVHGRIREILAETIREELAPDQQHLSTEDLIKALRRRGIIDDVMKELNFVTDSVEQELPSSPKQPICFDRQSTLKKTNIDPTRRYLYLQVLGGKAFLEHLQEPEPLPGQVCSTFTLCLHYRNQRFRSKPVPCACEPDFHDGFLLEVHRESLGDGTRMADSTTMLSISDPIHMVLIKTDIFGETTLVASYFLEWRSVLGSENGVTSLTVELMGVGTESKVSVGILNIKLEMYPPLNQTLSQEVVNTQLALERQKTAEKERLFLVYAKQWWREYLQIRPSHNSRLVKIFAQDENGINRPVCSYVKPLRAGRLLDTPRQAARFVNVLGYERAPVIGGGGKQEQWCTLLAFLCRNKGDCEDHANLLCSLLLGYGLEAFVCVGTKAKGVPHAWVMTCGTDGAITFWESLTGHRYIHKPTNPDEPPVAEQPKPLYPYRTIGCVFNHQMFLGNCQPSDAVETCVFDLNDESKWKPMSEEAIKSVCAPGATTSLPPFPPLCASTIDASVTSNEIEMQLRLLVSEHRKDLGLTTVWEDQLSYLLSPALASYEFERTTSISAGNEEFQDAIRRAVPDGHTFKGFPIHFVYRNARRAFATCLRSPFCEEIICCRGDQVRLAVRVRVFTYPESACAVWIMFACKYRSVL
UniProt Q8WVJ2: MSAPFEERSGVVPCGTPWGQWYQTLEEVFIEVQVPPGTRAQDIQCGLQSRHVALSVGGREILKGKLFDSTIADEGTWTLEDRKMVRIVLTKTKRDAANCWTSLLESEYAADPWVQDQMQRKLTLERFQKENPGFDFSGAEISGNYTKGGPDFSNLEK
UniProt Q8TCG2: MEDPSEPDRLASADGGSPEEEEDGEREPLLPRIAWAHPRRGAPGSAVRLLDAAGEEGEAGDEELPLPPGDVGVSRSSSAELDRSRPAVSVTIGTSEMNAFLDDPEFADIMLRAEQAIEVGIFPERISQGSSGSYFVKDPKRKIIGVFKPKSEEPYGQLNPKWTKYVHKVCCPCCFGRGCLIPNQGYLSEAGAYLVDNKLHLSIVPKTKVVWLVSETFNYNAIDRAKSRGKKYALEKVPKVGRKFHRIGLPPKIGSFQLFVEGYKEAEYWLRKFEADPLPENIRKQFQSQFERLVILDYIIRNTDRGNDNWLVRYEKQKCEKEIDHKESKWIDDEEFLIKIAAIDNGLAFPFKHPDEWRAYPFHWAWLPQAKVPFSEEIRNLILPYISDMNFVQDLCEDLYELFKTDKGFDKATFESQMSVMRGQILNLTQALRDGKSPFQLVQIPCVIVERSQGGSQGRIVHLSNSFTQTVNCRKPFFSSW
UniProt Q8TEL6: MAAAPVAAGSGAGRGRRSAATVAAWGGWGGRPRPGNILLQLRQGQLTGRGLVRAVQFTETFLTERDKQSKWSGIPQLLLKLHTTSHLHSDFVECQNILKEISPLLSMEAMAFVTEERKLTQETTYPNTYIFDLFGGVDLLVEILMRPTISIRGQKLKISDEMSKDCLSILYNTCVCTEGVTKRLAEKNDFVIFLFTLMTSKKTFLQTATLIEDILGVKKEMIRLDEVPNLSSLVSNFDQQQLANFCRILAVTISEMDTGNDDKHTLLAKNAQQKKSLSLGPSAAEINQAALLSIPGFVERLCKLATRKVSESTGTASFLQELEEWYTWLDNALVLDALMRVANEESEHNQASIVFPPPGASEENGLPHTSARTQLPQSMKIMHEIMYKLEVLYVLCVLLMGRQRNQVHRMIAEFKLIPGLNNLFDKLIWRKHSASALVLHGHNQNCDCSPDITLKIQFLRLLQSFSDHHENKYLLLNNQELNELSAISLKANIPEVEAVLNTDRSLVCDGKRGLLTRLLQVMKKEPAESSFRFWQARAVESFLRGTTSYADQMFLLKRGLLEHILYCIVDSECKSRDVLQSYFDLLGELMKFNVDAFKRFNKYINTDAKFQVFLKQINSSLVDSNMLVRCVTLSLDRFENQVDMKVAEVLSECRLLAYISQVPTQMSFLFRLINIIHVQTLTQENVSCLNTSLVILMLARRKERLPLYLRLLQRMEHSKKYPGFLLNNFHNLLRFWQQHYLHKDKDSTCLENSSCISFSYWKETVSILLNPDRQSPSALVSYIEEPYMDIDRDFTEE
UniProt Q8WUJ0: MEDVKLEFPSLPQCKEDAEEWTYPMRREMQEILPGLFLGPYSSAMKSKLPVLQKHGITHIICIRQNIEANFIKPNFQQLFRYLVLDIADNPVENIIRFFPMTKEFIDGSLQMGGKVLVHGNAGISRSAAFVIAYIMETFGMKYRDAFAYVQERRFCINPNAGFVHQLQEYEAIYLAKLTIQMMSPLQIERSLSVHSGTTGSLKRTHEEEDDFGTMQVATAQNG
UniProt Q8TB72: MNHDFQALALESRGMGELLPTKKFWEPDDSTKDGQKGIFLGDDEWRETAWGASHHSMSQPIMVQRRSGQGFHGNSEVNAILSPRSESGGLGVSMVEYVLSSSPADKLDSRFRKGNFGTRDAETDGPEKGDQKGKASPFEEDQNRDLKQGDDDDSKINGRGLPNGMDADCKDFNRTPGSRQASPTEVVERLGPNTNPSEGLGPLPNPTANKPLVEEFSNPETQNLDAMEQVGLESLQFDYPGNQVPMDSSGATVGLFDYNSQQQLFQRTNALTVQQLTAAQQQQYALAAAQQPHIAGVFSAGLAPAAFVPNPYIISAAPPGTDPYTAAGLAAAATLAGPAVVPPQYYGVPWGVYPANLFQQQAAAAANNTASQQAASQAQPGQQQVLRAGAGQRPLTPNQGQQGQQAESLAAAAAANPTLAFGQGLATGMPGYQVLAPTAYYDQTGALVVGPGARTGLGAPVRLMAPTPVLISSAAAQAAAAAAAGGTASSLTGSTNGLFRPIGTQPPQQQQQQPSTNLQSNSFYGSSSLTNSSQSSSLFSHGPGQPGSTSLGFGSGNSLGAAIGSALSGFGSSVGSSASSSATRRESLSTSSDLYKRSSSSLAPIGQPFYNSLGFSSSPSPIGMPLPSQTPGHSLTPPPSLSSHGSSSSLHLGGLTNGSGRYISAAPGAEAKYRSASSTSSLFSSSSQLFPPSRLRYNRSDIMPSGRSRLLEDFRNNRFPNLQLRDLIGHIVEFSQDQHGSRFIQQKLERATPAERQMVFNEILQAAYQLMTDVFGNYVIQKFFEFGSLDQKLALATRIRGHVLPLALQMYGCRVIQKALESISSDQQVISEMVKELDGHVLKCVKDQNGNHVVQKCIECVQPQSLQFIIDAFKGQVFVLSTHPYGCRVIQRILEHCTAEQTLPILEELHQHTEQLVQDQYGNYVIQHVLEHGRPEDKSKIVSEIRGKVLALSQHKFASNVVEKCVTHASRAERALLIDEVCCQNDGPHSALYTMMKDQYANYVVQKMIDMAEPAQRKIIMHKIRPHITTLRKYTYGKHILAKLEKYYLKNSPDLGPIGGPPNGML
UniProt Q8WUQ7: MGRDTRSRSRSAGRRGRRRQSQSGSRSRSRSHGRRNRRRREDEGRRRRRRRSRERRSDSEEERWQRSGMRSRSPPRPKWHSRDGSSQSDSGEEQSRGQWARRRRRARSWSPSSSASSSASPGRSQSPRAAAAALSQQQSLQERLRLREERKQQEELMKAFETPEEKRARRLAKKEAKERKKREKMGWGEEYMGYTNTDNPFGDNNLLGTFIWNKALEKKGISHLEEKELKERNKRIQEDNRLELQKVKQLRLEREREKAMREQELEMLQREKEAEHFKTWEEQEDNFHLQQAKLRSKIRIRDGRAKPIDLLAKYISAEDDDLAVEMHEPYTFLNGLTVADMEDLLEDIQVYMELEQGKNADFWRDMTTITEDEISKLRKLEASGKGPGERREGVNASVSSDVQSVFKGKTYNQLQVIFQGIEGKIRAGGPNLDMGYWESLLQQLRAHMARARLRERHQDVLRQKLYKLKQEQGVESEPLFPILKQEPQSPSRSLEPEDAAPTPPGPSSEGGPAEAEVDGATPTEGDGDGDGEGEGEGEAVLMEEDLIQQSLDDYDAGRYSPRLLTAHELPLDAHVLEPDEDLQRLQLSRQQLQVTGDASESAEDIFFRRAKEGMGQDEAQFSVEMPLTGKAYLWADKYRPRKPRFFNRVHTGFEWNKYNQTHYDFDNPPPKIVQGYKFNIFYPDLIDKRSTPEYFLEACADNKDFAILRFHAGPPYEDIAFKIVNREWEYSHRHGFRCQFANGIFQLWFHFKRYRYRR
UniProt Q8WV07: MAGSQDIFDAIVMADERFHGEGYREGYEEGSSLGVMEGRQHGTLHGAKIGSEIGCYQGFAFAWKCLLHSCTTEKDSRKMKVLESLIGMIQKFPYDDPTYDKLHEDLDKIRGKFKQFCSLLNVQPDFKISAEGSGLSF
UniProt Q8WU90: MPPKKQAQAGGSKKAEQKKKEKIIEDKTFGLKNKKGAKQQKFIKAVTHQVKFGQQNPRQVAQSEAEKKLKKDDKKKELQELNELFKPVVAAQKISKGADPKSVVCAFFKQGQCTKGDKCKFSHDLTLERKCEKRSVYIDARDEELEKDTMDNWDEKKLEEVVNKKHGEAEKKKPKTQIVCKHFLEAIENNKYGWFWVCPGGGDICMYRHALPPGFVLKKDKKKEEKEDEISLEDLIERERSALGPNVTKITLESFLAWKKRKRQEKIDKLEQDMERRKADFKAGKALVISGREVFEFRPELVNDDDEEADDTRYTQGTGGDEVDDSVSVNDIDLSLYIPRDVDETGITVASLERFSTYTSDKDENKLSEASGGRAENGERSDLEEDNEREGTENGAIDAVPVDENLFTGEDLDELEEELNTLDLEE
UniProt Q8TDH9: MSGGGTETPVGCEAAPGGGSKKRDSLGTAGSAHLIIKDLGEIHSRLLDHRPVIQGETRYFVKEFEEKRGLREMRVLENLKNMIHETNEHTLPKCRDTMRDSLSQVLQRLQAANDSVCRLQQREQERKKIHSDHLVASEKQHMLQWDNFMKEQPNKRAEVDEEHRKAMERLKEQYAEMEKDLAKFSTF
UniProt Q92504: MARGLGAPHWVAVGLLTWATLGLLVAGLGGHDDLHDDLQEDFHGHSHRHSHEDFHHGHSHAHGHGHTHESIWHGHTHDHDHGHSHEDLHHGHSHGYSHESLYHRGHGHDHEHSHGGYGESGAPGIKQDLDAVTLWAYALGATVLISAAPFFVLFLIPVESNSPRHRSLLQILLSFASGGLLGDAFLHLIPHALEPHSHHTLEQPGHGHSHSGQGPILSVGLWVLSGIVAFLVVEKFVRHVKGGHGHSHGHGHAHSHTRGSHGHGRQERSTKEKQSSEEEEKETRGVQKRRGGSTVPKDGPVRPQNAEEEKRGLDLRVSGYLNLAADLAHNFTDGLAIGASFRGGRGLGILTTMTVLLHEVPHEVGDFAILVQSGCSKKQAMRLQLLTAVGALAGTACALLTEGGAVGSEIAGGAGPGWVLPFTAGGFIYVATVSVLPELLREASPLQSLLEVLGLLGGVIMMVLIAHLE
UniProt Q8TAF3: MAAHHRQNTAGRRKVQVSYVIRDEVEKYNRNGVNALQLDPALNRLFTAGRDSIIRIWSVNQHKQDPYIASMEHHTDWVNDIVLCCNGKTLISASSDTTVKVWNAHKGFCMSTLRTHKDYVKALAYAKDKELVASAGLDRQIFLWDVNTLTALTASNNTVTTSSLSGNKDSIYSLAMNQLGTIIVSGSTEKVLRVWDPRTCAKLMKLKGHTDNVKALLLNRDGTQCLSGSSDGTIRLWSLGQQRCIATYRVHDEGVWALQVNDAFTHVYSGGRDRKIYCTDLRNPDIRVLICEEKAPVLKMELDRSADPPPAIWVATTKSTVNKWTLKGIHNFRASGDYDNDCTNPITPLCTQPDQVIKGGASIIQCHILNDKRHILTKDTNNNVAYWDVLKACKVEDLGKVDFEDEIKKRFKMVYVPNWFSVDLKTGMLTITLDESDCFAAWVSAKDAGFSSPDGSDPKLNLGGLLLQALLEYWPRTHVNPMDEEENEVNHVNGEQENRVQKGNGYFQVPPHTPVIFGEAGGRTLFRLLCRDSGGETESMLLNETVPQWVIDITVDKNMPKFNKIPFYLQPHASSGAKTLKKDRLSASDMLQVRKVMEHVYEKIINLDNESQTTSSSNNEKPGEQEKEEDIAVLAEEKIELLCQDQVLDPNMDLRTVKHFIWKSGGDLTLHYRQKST
UniProt Q8TAE6: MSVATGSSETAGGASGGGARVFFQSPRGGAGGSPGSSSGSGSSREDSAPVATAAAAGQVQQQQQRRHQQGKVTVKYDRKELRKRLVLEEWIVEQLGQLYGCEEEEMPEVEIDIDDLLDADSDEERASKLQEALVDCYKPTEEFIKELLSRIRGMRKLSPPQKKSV
UniProt Q8WZ82: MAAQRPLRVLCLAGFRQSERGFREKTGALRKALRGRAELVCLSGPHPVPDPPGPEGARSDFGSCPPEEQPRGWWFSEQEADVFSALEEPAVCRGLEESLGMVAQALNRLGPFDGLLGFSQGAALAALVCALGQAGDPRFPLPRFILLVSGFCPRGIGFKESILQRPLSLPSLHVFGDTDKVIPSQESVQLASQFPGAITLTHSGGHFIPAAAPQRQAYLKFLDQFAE

Compound in the test: Cc1nc(Nc2ncc(C(=O)Nc3c(C)cccc3Cl)s2)cc(N2CCN(CCO)CC2)n1 [dasatinib]
As to the kind of experiment: log2 fold change of tryptic peptide abundance, ligand vs vehicle (limited proteolysis) (log2 ratio); higher = more trypsin-susceptible (destabilized). The note with it: ligand concentration: 5 uM; sample: K562 cleared lysate.
Regarding “LPIN2 (peptide sequence: SDSELEVKPAESLLR, peptide start residue: 243) (UniProt Q92539)”, the log2 fold change is -0.831. As for “HSPH1 (peptide sequence: KPVTDCVISVPSFFTDAERR, peptide start residue: 135) (UniProt Q92598)”, the log2 fold change turned out to be 0.194. With “CEP76 (peptide sequence: GIIDDVMK, peptide start residue: 60) (UniProt Q8TAP6)” the figure was -0.141; with “UniProt Q8WTU0 (peptide sequence: HQCSIDLK, peptide start residue: 330)”, -0.226. With “NSUN6 (peptide sequence: VFLGNGISELSR, peptide start residue: 170) (UniProt Q8TEA1)” the figure was 0.0948; with “RTF1 (peptide sequence: NQQMDPFTRR, peptide start residue: 588) (UniProt Q92541)”, 0.409. Turning to “NUDCD2 (peptide sequence: HVALSVGGR, peptide start residue: 51) (UniProt Q8WVJ2)”, the log2 fold change was -0.114.

For the target “CXorf38 (peptide sequence: NGDVHWGNCRPGR, peptide start residue: 95) (UniProt Q8TB03)”, the log2 fold change was found to be 0.513. With “FAM222B (peptide sequence: ELAGPGFVGK, peptide start residue: 397) (UniProt Q8WU58)”, the log2 fold change amounted to 0.153. With “PI4K2B (peptide sequence: KFEADPLPENIRK, peptide start residue: 272) (UniProt Q8TCG2)” the figure was -0.153; with “TRPC4AP (peptide sequence: LHTTSHLHSDFVECQNILK, peptide start residue: 81) (UniProt Q8TEL6)”, 0.465.

Take “STYX (peptide sequence: SLSVHSGTTGSLKR, peptide start residue: 191) (UniProt Q8WUJ0)”: the log2 fold change is 0.00906. With “PUM2 (peptide sequence: ESLSTSSDLYK, peptide start residue: 586) (UniProt Q8TB72)” the figure was -0.204; with “DOT1L (peptide sequence: LSGLAAPDYTR, peptide start residue: 763) (UniProt Q8TEK3)”, -0.747. As to “PPIL4 (peptide sequence: EQDKPPNLVLK, peptide start residue: 342) (UniProt Q8WUA2)”, the log2 fold change was -0.244.

As for “UniProt Q8WUQ7 (peptide sequence: ERHQDVLR, peptide start residue: 455)”, the log2 fold change was 0.372.

As for “RASSF5 (peptide sequence: LSIADRPLYLR, peptide start residue: 335) (UniProt Q8WWW0)”, the log2 fold change is -0.149.

For the target “UniProt Q8TDF6 (peptide sequence: AQVLDKFIHVAQR, peptide start residue: 268)”, the log2 fold change was -0.479. With “FNIP1 (peptide sequence: EDIQNSSK, peptide start residue: 631) (UniProt Q8TF40)” the figure was 0.295; with “UniProt Q8WV07 (peptide sequence: FHGEGYR, peptide start residue: 18)”, 0.14.

Consider “ZC3H15 (peptide sequence: EDEISLEDLIERER, peptide start residue: 227) (UniProt Q8WU90)”, for which the log2 fold change amounted to 0.173. Take “UniProt Q8TDH9 (peptide sequence: LKEQYAEMEK, peptide start residue: 170)”: the log2 fold change is -0.321. For the target “STON2 (peptide sequence: GDNQILQHHVLTR, peptide start residue: 586) (UniProt Q8WXE9)”, the log2 fold change was 0.553.

Consider “UniProt Q8WZA9 (peptide sequence: AALQSQAEALR, peptide start residue: 166)”, for which the log2 fold change was found to be 0.149. With “SNX29 (peptide sequence: ESTQNVTSLLK, peptide start residue: 198) (UniProt Q8TEQ0)” the figure was -0.247; with “SLC39A7 (peptide sequence: DGPVRPQNAEEEKR, peptide start residue: 298) (UniProt Q92504)”, 0.37; with “SMAP2 (peptide sequence: LEPVVFEK, peptide start residue: 153) (UniProt Q8WU79)”, -0.0796.

Regarding “UniProt Q8WTP8 (peptide sequence: GGAREAQDR, peptide start residue: 315)”, the log2 fold change is 0.129.

With “STAG1 (peptide sequence: FLTEQMMER, peptide start residue: 1029) (UniProt Q8WVM7)”, the log2 fold change was determined as 0.282.

On to “WDR48 (peptide sequence: FNKIPFYLQPHASSGAK, peptide start residue: 562) (UniProt Q8TAF3)”, for which the log2 fold change was found to be 0.165. As for “PPP1R14C (peptide sequence: KLSPPQKK, peptide start residue: 156) (UniProt Q8TAE6)”, the log2 fold change is -0.28. With “UniProt Q8TF76 (peptide sequence: DRPSLTVTPK, peptide start residue: 90)” the figure was -0.231; with “JADE3 (peptide sequence: NTEDLQCYVKPTK, peptide start residue: 726) (UniProt Q92613)”, 0.28. For “OVCA2 (peptide sequence: VLCLAGFR, peptide start residue: 9) (UniProt Q8WZ82)”, the log2 fold change is -0.0448.

Take “HDAC7 (peptide sequence: LSGSGLHWPLSR, peptide start residue: 344) (UniProt Q8WUI4)”: the log2 fold change was -0.109. With “RB1CC1 (peptide sequence: LDSLPEHEDSEKAEMK, peptide start residue: 220) (UniProt Q8TDY2)” the figure was -0.227; with “PIEZO1 (peptide sequence: QDAVSGTPLLR, peptide start residue: 728) (UniProt Q92508)”, 0.117.

These data come from the supplement of paper PMC12819154, “High-throughput peptide-centric local stability assay extends protein–ligand identification to membrane proteins, tissues and bacteria” (Nature Structural & Molecular Biology, 2025).
